This note sets out measurements from paper PMC10565642.

This assay concerns the target T1, NLR family pyrin domain containing 1 (NLRP1), endogenous (human (endogenous in K562 and M-PBMCs)) (UniProt Q9C000).
T1 sequence: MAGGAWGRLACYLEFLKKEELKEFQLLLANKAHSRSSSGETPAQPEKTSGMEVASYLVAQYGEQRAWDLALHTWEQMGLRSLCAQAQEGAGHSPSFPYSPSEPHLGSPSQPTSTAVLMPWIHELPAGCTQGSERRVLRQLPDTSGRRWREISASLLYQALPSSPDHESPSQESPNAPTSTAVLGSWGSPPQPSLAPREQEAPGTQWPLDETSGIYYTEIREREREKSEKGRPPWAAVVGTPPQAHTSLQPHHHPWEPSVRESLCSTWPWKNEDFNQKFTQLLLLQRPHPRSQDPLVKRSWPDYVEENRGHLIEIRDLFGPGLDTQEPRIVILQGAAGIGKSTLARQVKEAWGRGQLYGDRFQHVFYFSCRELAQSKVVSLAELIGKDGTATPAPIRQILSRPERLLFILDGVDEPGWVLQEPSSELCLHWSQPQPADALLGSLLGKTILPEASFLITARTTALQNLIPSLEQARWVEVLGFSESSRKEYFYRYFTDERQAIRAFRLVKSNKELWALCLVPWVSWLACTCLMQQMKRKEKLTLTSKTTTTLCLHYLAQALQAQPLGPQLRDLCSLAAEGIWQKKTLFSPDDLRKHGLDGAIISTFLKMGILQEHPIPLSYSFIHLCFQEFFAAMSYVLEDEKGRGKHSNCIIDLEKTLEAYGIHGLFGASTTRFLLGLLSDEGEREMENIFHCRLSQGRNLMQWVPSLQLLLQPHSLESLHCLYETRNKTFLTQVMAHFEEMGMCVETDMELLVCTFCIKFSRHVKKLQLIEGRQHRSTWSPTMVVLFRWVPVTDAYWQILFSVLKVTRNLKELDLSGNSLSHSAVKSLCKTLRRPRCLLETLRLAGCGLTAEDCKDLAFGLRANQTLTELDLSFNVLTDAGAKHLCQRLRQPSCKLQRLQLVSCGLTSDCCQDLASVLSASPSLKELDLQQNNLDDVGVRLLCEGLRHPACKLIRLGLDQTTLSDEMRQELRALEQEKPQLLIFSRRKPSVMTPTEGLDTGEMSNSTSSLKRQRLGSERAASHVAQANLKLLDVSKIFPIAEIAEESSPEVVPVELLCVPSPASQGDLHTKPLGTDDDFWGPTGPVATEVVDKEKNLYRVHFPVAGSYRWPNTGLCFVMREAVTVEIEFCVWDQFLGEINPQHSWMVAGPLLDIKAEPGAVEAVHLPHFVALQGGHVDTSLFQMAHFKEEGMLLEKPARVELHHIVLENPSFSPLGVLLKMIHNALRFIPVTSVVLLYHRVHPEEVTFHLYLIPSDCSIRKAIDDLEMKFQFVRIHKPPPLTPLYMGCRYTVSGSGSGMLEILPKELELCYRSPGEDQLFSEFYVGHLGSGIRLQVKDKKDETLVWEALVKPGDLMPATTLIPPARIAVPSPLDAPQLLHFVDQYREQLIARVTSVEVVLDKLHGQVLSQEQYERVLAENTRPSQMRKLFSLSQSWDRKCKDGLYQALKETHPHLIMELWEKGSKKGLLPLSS
The experiment in a line: affinity purification with mass spectrometry; endogenous NLRP1 immunoprecipitated from K562 cells after erythroid differentiation; eluates on SDS-PAGE, in-gel trypsin digest, LC-MS/MS; three biological replicates.

These are yes or no findings as the source states them, for the method shown. In cells and extracts the contact can be indirect. A yes stands for co-enrichment or nearness to the bait. Other partners may have been found.

B1: LRR Binding FLII Interacting Protein 1 (LRRFIP1), endogenous (protein, UniProt Q32MZ4 1-808)
chain: MTSPAAAQSREIDCLSPEAQKLAEARLAAKRAARAEAREIRMKELERQQKEEDSERYSRRSRRNTSASDEDERMSVGSRGSLRVEERPEKDFTEKGSRNMPGLSAATLASLGGTSSRRGSGDTSISIDTEASIREIKELNELKDQIQDVEGKYMQGLKEMKDSLAEVEEKYKKAMVSNAQLDNEKTNFMYQVDTLKDMLLELEEQLAESRRQYEEKNKEFEREKHAHSILQFQFAEVKEALKQREEMLEKHGIILNSEIATNGETSDTLNNVGYQGPTKMTKEELNALKSTGDGTLGRASEVEVKNEIVANVGKREILHNTEKEQHTEDTVKDCVDIEVFPAGENTEDQKSSEDTAPFLGTLAGATYEEQVQSQILESSSLPENTVQVESNEVMGAPDDRTRTPLEPSNCWSDLDGGNHTENVGEAAVTQVEEQAGTVASCPLGHSDDTVYHDDKCMVEVPQELETSTGHSLEKEFTNQEAAEPKEVPAHSTEVGRDHNEEEGEETGLRDEKPIKTEVPGSPAGTEGNCQEATGPSTVDTQNEPLDMKEPDEEKSDQQGEALDSSQKKTKNKKKKNKKKKSPVPVETLKDVKKELTYQNTDLSEIKEEEQVKSTDRKSAVEAQNEVTENPKQKIAAESSENVDCPENPKIKLDGKLDQEGDDVQTAAEEVLADGDTLDFEDDTVQSSGPRAGGEELDEGVAKDNAKIDGATQSSPAEPKSEDADRCTLPEHESPSQDISDACEAESTERCEMSEHPSQTVRKALDSNSLENDDLSAPGREPGHFNPESREDTRGGNEKGKSKEDCTMS
Consider B1, for which the binding entry is listed as “binds”.
